Measurements reported in article PMC12751231.
No constants are given. Whether binding was seen depends on the method and setting. In cells and extracts the contact can be indirect. Some binding calls cover weakened binding; strength is not graded here. Tags and fused reporters may be left off the sequences shown.

Protein sequences, listed by entry. Tags and fused reporters are not part of them.
UniProt Q61879: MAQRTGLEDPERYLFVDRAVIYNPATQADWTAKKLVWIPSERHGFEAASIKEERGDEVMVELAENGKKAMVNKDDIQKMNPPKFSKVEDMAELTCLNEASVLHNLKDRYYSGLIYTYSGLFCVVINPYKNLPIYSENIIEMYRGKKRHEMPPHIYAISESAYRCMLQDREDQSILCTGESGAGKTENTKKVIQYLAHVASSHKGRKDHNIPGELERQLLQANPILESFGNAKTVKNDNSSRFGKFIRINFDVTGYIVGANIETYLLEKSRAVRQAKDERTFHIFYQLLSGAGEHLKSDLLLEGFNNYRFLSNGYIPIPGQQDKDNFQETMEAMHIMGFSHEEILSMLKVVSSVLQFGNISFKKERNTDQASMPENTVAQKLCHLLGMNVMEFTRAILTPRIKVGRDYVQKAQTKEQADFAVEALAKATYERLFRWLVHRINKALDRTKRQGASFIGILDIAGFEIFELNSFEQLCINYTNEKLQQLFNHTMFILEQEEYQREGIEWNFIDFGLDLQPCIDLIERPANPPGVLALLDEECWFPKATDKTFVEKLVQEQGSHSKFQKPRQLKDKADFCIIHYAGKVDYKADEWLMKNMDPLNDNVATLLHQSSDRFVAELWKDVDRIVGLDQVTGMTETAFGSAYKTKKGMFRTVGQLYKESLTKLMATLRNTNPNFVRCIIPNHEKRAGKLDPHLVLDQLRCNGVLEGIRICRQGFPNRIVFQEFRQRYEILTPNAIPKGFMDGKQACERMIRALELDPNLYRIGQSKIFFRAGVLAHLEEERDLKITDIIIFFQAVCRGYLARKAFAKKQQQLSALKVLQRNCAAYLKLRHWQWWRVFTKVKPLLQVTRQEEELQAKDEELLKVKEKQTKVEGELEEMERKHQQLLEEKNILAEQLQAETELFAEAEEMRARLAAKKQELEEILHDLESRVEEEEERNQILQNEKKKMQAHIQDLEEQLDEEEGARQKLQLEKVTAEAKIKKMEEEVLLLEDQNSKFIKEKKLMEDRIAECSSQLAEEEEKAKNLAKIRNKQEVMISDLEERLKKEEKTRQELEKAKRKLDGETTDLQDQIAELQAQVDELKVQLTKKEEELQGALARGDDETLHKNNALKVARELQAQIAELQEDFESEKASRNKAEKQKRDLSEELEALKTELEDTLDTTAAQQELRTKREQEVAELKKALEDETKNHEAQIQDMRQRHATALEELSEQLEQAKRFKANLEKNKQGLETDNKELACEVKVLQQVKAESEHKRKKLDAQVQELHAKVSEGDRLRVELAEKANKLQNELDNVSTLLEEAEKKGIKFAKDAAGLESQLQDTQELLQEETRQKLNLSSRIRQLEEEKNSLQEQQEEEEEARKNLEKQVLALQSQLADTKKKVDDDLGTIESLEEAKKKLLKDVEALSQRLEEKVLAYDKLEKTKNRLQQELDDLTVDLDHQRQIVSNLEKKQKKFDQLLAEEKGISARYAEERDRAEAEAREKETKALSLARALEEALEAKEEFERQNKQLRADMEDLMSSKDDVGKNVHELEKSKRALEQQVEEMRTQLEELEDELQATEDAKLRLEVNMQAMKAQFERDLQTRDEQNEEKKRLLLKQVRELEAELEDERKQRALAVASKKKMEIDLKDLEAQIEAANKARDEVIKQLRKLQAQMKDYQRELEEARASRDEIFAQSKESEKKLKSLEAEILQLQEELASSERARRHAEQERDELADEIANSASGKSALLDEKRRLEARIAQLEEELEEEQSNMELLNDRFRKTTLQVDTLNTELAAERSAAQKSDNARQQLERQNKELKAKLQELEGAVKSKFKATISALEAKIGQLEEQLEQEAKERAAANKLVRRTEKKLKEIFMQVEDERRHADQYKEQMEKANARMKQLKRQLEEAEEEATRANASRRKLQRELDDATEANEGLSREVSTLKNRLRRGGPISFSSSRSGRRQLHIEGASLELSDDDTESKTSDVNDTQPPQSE

T1: CFAP57 (cilia and flagella associated protein 57), mouse (mouse (endogenous in testis)) (UniProt Q9D180)
T1 sequence: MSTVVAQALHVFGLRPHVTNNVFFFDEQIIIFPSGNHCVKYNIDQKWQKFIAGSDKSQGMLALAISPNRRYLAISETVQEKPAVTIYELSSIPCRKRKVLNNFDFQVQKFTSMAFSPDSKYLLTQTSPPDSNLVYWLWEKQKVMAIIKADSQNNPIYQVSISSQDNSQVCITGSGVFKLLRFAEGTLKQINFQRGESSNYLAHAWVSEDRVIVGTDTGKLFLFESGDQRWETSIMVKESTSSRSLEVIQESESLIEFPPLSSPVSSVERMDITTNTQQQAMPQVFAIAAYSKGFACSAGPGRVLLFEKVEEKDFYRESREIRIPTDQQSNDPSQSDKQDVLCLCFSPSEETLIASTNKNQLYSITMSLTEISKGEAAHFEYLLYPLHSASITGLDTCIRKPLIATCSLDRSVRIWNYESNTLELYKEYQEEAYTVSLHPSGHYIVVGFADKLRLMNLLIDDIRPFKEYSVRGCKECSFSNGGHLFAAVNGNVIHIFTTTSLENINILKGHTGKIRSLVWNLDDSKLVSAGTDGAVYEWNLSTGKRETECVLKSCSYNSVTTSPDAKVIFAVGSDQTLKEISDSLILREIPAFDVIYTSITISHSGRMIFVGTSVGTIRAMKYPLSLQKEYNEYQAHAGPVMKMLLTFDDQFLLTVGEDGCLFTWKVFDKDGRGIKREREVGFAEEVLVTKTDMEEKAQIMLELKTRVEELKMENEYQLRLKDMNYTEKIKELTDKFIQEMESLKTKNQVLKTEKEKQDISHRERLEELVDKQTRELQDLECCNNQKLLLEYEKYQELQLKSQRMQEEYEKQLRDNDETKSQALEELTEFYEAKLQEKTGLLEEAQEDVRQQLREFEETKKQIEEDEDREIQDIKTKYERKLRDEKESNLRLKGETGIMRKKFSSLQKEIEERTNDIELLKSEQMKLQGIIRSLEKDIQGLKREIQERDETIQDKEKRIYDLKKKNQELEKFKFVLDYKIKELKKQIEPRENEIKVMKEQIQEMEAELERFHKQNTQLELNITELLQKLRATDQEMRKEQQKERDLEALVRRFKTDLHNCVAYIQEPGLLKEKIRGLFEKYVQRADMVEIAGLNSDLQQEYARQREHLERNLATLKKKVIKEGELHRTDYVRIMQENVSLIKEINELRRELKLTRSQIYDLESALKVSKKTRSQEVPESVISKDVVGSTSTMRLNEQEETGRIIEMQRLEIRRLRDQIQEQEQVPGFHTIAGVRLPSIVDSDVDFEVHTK


Columns and labels:
[1] = target: T1, CFAP57 (cilia and flagella associated protein 57), mouse (mouse (endogenous in testis)); experiment: co-IP; WT mouse testis lysate; CFAP57, MYH10 or RAB1 antibody or rabbit IgG overnight at 4 °C, protein G agarose beads 4 h, five washes with lysis buffer; Western blotting with MYH10, RAB1 and CFAP57 antibodies
[2] = target: MYH10, a non-muscle myosin II isoform, mouse (mouse (endogenous in testis)) (UniProt Q61879); experiment: as above

binding [1] | binding [2] | Molecule
binds | – | MYH10, a non-muscle myosin II isoform, mouse (from UniProt Q61879 1-1976)
– | binds | CFAP57 (cilia and flagella associated protein 57), mouse (protein, UniProt Q9D180 1-1249) MSTVVAQALHVFGLRPHVTNNVFFFDEQIIIFPSGNHCVKYNIDQKWQKFIAGSDKSQGMLALAISPNRRYLAISETVQEKPAVTIYELSSIPCRKRKVLNNFDFQVQKFTSMAFSPDSKYLLTQTSPPDSNLVYWLWEKQKVMAIIKADSQNNPIYQVSISSQDNSQVCITGSGVFKLLRFAEGTLKQINFQRGESSNYLAHAWVSEDRVIVGTDTGKLFLFESGDQRWETSIMVKESTSSRSLEVIQESESLIEFPPLSSPVSSVERMDITTNTQQQAMPQVFAIAAYSKGFACSAGPGRVLLFEKVEEKDFYRESREIRIPTDQQSNDPSQSDKQDVLCLCFSPSEETLIASTNKNQLYSITMSLTEISKGEAAHFEYLLYPLHSASITGLDTCIRKPLIATCSLDRSVRIWNYESNTLELYKEYQEEAYTVSLHPSGHYIVVGFADKLRLMNLLIDDIRPFKEYSVRGCKECSFSNGGHLFAAVNGNVIHIFTTTSLENINILKGHTGKIRSLVWNLDDSKLVSAGTDGAVYEWNLSTGKRETECVLKSCSYNSVTTSPDAKVIFAVGSDQTLKEISDSLILREIPAFDVIYTSITISHSGRMIFVGTSVGTIRAMKYPLSLQKEYNEYQAHAGPVMKMLLTFDDQFLLTVGEDGCLFTWKVFDKDGRGIKREREVGFAEEVLVTKTDMEEKAQIMLELKTRVEELKMENEYQLRLKDMNYTEKIKELTDKFIQEMESLKTKNQVLKTEKEKQDISHRERLEELVDKQTRELQDLECCNNQKLLLEYEKYQELQLKSQRMQEEYEKQLRDNDETKSQALEELTEFYEAKLQEKTGLLEEAQEDVRQQLREFEETKKQIEEDEDREIQDIKTKYERKLRDEKESNLRLKGETGIMRKKFSSLQKEIEERTNDIELLKSEQMKLQGIIRSLEKDIQGLKREIQERDETIQDKEKRIYDLKKKNQELEKFKFVLDYKIKELKKQIEPRENEIKVMKEQIQEMEAELERFHKQNTQLELNITELLQKLRATDQEMRKEQQKERDLEALVRRFKTDLHNCVAYIQEPGLLKEKIRGLFEKYVQRADMVEIAGLNSDLQQEYARQREHLERNLATLKKKVIKEGELHRTDYVRIMQENVSLIKEINELRRELKLTRSQIYDLESALKVSKKTRSQEVPESVISKDVVGSTSTMRLNEQEETGRIIEMQRLEIRRLRDQIQEQEQVPGFHTIAGVRLPSIVDSDVDFEVHTK
